Measurements reported in PMC5404532, “Simplified Reversed Chloroquines To Overcome Malaria Resistance to Quinoline-Based Drugs” (Antimicrobial Agents and Chemotherapy, 2017).

Tested on: mouse spleen lymphocytes
Assay: Cytotoxicity against mouse spleen lymphocytes
Assay type: cell-based
Settings: unitless; cytotoxicity/efficacy against D6

| Compound | T.I. (therapeutic index) |
| --- | --- |
| Clc1ccc2c(NCCCN3CCN(c4ccccc4)CC3)ccnc2c1 [Compound 9, 7-Chloro-N-(3-(4-phenylpiperazin-1-yl)propyl)quinolin-4-amine] | 16,000 |
| Clc1ccc2c(NCCCN3CCN(c4ccccn4)CC3)ccnc2c1 [Compound 21, 7-Chloro-N-(3-(4-(pyridin-2-yl)piperazin-1-yl)propyl)quinolin-4-amine] | 19,000 |
